Source: PMC10163288
This is one part of the list.

B1: il2ra_site2_2erj_sap_35_mot_8abaa092650c7ec0dcd26c08d75eddca_0001_1_000000049_0001_35_49_H_._HHH_b2_08271_af2_0001_0000200012_0000001_0_0001_af2pred_0001_af2pre … (protein)
chain: SDERLLELAAEKLAERAGVPDVSVEVHNGTLEVEFTGTTERLKEVLEALEFAAKAQGLEFESSSE
B2: il2ra_site1_3nfp_sap_7_mot_HHH_b2_04441_af2_000000141_0001_1_20_H_._HHH_b2_08321_0001_0000200005_0000001_0_0001_af2pred_0001_af2pred (protein)
chain: SSSSSSSELEELLREANELKKRGNPEEAKKVLEQAEKAAEERNNENARRVVEAMLRLLSSSSSSS
B3: il2ra_site1_2b5i_normal_mot_HHH_b1_06833_000000178_0001_1_19_H_._HHH_b1_07157_0001_0000200017_0000001_0 (protein)
chain: SSSSSEHIKYIVRVVLRLAHEYNLSLEQMRELARLAAELAQRGYSEEEIEEELREKAEQLGSSSS
B4: il2ra_site1_2b5i_normal_mot_HHH_b1_07881_af2_000000049_0001_1_19_H_._HHH_b1_08435_0001_0000200010_0000001_1_af2pred_dldesign_0_af2pred (protein)
chain: SSSSSDPEAEIDRLFNEALELKRQGKLEEAKKLLEEAIKLAKANGDEKAVAELEYFLSLLSSSSS
B5: il2ra_site2_2erj_sap_28_mot_HHH_b2_01204_af2_000000051_0001_19_34_H_._HHH_b2_05199_0001_0000300050_0000001_0_0001 (protein)
chain: SSSSTEELREIFELANALLEAIQNNDDELFREIYKEAEELIEKTNSENAEEHLRWLERHFNSSSS
B6: il2ra_site2_3nfp_normal_mot_HHH_b1_07095_000000265_0001_1_20_H_._HHH_b1_04266_af2_0001_0000200008_0000001_0 (protein)
chain: SSSSDEFRERVEELVEKAEELLERGNPEEARRVLARATALAYEGNDFEAFALVNELLEKLTSSSS
B7: il2ra_site1_3nfp_sap_13_mot_HHH_b2_04441_af2_000000141_0001_1_20_H_._HHH_b2_00593_0001_0000100008_0000001_0_0001_af2pred_0001_af2pred_swapped (protein)
chain: SSSSSEVTELLRRALEAAQNGNPEEAVELLEEAKRLAEELNDERILKLIEADLRVARRLLSSSSS
B8: il2ra_site1_3nfp_normal_mot_eb5a5eebac1e5153f932cc6c3f4b2787_0001_af2_000000065_0001_18_33_H_._HHH_b2_04044_0002_0000100009_0000001_0 (protein)
chain: SSSSSDEEIRERVEELLEEAKHIPDYREASRLVEEAYRLAAELGDPELSELIYRVMREIVSSSSS
B9: il2ra_site1_1z92_normal_mot_922575b2e9738a49cb663a995786872c_0001_af2_000000234_0001_18_32_H_._ae2d1c0b5552e85e62693402b9c72bf7_0001_af2_0001_0000300017_0000001 … (protein)
chain: NRDSREQIEEAIKKNDLELLKEILERSEEQSGDPRLAKQYLKIAIKRLLGDPEKAREIVERIEQR
B10: il2ra_site1_3nfp_sap_14_mot_HHH_b1_04197_000000021_0001_41_57_H_._HHH_b2_03447_af2_0001_0000300002_0000001_0_0001 (protein)
chain: DRAFRRAIELAQKQDEELAELLEEVVRLLKEEGDPRLLELLDEAMQLIAKGNPEEAKRVLEEALK
B11: il2ra_site2_2erj_normal_mot_6ec3e94b46d95805cdcdc10c0c108f03_0001_af2_000000040_0001_36_50_H_._HHH_b2_07873_af2_0001_0000300042_0000001_0 (protein)
chain: SSSSNEELKKLYELANRIMHALANGDEELFEELLQELKELAEKLDSENAKELAELLEEHGSSSSS
B12: il2ra_site1_3nfp_sap_12_mot_HHH_b2_05592_000000000_0001_42_56_H_._HEEHE_1033_0001_0000100003_0000001_0_0001_af2pred_0001_af2pred_1_swapped (protein)
chain: GKEEALELLKEAAERLNDPALRFIARALEEALKRDPELAKRILRRLVEITGDPVLEEVLELLESD
B13: il2ra_site1_1z92_normal_mot_HHH_b2_04342_af2_000000114_0001_23_39_H_._HHH_b2_01541_0001_0000100015_0000001_0 (protein)
chain: SSSSDEAVERLVEFLTRNAELAIEHGDERALKAALKIMKSLAKLHNDEELRKLIEELEEEGSSSS
B14: il2ra_site2_3nfp_sap_26_mot_ems_p1-15H-GBL-16H-GBL-14H_0089_0001_0001_0001_af2_000000072_0001_19_33_H_._HHH_b1_04644_0001_0000200032_0000001_0_0001 (protein)
chain: SSSSDKSEEYLRIALELIEEAIEDGNPEVARRLIETARAMAESHNDEEVLERLEELLEEISSSSS
B15: il2ra_site2_2erj_sap_24_mot_720936397f2d31669eff21710c18a4fc_0001_000000071_0001_37_51_H_._HHH_b1_00159_0001_0000100007_0000001_0_0001 (protein)
chain: SSSSSDDLHRLYELAVRILHLISKGDPEEAEKLLEELRELAEEVDSENAKEITESLEKLLSSSSS
B16: il2ra_site2_3nfp_normal_mot_HHH_b2_07129_000000128_0001_19_36_H_._HHH_b1_01121_af2_0001_0000300014_0000001_0 (protein)
chain: SSSSSEEVEELLERIEELLQRNNREEARKLVQRVAQLAFELRDHELFARVADLRLAVEQLSSSSS
B17: il2ra_site2_3nfp_normal_mot_HHH_b1_04158_af2_000000151_0001_42_56_H_._HHH_b1_01821_0001_0000500022_0000001_0 (protein)
chain: SSSSDKAHRYLRAFLRLIELAIEAGDREAARRHLEAAKLLAEAKEDEEIEELLEELEELINSSSS
B18: il2ra_site1_2b5i_sap_9_mot_9b27c49f4244f023ba89377d59a42b61_0001_000000075_0001_18_32_H_._HHH_b1_06239_0002_0000300029_0000001_0_0001 (protein)
chain: SSSDDNELARFATEVVWRLRWHLGLSNEQAQELNKRASELVWRGVSPEEIEEILEELAERLSSSS
B19: il2ra_site1_1z92_normal_mot_HHH_b1_01765_000000215_0001_19_35_H_._HHH_b1_04234_0001_0000400037_0000001_0 (protein)
chain: SSSSSKAEERLEFAIRNLKLLLERGNEKAAEWAARLLLALARVVGDEEAKRYVEEVEQELSSSSS

What follows are binders tested against il2ra, P01589 (assay: yeast display titration).

Apparent Kd, inactive:
B1 no binding seen
B2 no binding seen
B3 no binding seen
B4 no binding seen
B5 no binding seen
B6 no binding seen
B7 no binding seen
B8 no binding seen
B9 no binding seen
B10 no binding seen
B11 no binding seen
B12 no binding seen
B13 no binding seen
B14 no binding seen
B15 no binding seen
B16 no binding seen
B17 no binding seen
B18 > 420 nM
B19 no binding seen

Reprinted at random: 2 records from the list, in no set order.
Apparent Kd, inactive:
B12 no binding seen
B15 no binding seen
